Earlier results in patent US20010029264A1, “Novel methods and compositions for delivery of taxanes” (priority 1998, published 2001).

Details: aqueous solution; cited from earlier work

SMILES: CC(=O)O[C@H]1C(=O)[C@@]2(C)[C@H]([C@H](OC(=O)c3ccccc3)[C@]3(O)C[C@H](OC(=O)[C@H](O)[C@@H](NC(=O)c4ccccc4)c4ccccc4)C(C)=C1C3(C)C)[C@]1(OC(C)=O)CO[C@@H]1C[C@@H]2O [paclitaxel]
- water solubility: water insoluble
